Results are given in words; binding and its absence hold for the method and conditions named. Binding seen in cells or lysates may run through a third protein. Some results given as binding are weak or reduced against the parent protein; the word gives no strength.
Columns and labels:
[1] = biological target: Survivin (human (endogenous in CNE2)) (UniProt O15392); experiment: co-IP; endogenous proteins; CNE2 shCtrl and shTRAF4 cells, IR (2 Gy) 24 h or not, then MG132 6 h; whole cell extract, IP with FBXL7 or survivin antibody, immunoblot
Flag-Survivin (T34A) = Flag-Survivin (T34A) (UniProt O15392); experiment: co-IP; Flag-Survivin WT, T34D or T34A transfected into CNE2 cells 24 h, IR (2 Gy) 24 h, then MG132 6 h; whole cell extract, Co-IP and immunoblot; endogenous FBXL7
Flag-Survivin (T34D) = Flag-Survivin (T34D) (UniProt O15392); experiment: as above
Flag-Survivin WT = Flag-Survivin WT (UniProt O15392); experiment: as above

The chains behind the UniProt entries cited, without tags or fusion partners. Where a name states a change or a piece, a line headed by the entry shows the natural chain unless it says otherwise.
UniProt O15392: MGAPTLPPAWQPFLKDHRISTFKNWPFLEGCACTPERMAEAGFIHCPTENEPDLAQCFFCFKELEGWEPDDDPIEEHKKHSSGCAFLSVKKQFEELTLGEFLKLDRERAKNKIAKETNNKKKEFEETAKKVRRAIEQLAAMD

Measured: binding

B1: FBXL7 (protein, UniProt Q9UJT9 1-491)
chain: MGANNGKQYGSEGKGSSSISSDVSSSTDHTPTKAQKNVATSEDSDLSMRTLSTPSPALICPPNLPGFQNGRGSSTSSSSITGETVAMVHSPPPTRLTHPLIRLASRPQKEQASIDRLPDHSMVQIFSFLPTNQLCRCARVCRRWYNLAWDPRLWRTIRLTGETINVDRALKVLTRRLCQDTPNVCLMLETVTVSGCRRLTDRGLYTIAQCCPELRRLEVSGCYNISNEAVFDVVSLCPNLEHLDVSGCSKVTCISLTREASIKLSPLHGKQISIRYLDMTDCFVLEDEGLHTIAAHCTQLTHLYLRRCVRLTDEGLRYLVIYCASIKELSVSDCRFVSDFGLREIAKLESRLRYLSIAHCGRVTDVGIRYVAKYCSKLRYLNARGCEGITDHGVEYLAKNCTKLKSLDIGKCPLVSDTGLECLALNCFNLKRLSLKSCESITGQGLQIVAANCFDLQTLNVQDCEVSVEALRFVKRHCKRCVIEHTNPAFF
binds: [1] | Flag-Survivin (T34A) | Flag-Survivin (T34D) | Flag-Survivin WT

— PMC10750280
